Patent US20240307439A1
Results are given in words; binding and its absence hold for the method and conditions named. Some results given as binding are weak or reduced against the parent protein; the word gives no strength.

Key:
[1] = target: p26-binding CAR (af03); assay: flow cytometry, af03-CAR Jurkat cells loaded with Adapter mixtures, then CD123-Fc and biotinylated BCMA
[2] = target: p26-binding CAR (af03); assay: flow cytometry, CAR-transduced Jurkat cells incubated with 0.5 µg Adapter, stained with anti-HIS PE

binding [1]: binds
binding [2]: binds
B1: bc40-p26 Adapter (designed binder)
chain: DEHHHHHHHHHHKLENLYFQGGGGGSMGSWSEFWVRLGAIRERLDALGGSEAELAAFEKEIAAFESELQAYKGKGNPEVEKLRYTAATIRRFLQAYRHNGGGGSGGGGSGGGGSLEKCFQTENPLECQDKGEEELQKYIQESQALAKRSCGLFQKLGEYYLQNAFLVAYTKKAPQLTSSELMAITRKMAATAATCCQLSEDKLLACGEGAADIIIGHLCIRHEMTPVNPGVGQCCTSSYANRRPCFSSLVVDETYVPPAFSDDKFIFHKDLCQAQGVALQTMKQEFLINLVKQKPQITEEQLEAVIADFSGLLEKCCQGQEQEVCFAEEGQKLISKTRAALGV
